Data from the supplement of paper PMC12067093, “Discovery and optimisation of a covalent ligand for TRIM25 and its application to targeted protein ubiquitination” (Chemical Science, 2025).
The other results are listed elsewhere or left out.

Amino acid sequences for entries named in this document (tags omitted). A change or cut given only in a name is not applied to a line headed by its entry.
UniProt Q8IYB7: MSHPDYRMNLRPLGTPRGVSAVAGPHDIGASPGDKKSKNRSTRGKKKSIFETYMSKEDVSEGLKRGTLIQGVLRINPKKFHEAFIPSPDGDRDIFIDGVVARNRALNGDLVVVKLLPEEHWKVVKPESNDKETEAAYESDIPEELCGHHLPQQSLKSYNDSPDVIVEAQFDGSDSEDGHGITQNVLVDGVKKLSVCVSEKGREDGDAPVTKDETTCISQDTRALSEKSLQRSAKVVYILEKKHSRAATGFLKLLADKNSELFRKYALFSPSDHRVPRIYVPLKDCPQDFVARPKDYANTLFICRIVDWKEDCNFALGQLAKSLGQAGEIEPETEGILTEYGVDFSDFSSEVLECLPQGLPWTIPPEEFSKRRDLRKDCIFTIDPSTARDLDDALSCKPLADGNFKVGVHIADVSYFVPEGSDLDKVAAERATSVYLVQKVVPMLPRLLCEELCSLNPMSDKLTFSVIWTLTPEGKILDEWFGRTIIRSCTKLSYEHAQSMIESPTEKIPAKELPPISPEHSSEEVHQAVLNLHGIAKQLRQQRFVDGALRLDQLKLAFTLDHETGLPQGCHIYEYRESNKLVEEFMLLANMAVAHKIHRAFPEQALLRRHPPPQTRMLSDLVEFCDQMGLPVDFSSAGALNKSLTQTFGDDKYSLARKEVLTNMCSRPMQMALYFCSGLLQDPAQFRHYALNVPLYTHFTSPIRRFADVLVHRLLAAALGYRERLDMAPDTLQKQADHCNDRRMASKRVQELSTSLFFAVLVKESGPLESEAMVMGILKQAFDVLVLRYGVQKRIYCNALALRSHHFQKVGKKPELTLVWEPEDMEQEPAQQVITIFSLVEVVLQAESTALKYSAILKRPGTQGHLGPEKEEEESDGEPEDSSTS
UniProt O60879: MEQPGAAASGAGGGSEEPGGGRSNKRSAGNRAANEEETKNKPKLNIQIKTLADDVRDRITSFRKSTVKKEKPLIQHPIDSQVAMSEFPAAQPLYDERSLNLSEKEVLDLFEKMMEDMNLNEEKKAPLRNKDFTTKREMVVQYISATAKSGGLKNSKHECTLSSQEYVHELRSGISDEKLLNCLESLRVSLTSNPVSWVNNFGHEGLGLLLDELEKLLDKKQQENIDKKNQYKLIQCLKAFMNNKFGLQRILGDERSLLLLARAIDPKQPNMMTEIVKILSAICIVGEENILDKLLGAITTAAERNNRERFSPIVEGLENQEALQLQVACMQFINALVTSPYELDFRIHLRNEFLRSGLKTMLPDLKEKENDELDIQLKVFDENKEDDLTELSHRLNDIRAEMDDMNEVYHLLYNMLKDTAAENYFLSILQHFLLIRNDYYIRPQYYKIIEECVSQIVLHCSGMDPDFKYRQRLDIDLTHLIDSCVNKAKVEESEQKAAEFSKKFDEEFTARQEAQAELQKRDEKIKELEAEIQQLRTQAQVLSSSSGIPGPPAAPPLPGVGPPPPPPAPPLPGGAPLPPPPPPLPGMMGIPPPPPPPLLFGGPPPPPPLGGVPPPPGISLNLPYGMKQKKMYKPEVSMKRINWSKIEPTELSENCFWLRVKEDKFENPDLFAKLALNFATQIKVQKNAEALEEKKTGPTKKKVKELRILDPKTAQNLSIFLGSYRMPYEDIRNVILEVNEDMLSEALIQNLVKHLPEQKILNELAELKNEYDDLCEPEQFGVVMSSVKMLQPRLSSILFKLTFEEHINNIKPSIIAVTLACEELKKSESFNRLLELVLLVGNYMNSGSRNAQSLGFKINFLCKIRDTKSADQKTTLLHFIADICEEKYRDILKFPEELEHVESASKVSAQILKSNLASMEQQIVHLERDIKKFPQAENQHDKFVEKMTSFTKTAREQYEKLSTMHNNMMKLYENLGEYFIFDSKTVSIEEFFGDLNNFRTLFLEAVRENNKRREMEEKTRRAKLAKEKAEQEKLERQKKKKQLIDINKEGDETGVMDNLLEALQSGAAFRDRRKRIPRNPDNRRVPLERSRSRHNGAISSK
UniProt Q92620: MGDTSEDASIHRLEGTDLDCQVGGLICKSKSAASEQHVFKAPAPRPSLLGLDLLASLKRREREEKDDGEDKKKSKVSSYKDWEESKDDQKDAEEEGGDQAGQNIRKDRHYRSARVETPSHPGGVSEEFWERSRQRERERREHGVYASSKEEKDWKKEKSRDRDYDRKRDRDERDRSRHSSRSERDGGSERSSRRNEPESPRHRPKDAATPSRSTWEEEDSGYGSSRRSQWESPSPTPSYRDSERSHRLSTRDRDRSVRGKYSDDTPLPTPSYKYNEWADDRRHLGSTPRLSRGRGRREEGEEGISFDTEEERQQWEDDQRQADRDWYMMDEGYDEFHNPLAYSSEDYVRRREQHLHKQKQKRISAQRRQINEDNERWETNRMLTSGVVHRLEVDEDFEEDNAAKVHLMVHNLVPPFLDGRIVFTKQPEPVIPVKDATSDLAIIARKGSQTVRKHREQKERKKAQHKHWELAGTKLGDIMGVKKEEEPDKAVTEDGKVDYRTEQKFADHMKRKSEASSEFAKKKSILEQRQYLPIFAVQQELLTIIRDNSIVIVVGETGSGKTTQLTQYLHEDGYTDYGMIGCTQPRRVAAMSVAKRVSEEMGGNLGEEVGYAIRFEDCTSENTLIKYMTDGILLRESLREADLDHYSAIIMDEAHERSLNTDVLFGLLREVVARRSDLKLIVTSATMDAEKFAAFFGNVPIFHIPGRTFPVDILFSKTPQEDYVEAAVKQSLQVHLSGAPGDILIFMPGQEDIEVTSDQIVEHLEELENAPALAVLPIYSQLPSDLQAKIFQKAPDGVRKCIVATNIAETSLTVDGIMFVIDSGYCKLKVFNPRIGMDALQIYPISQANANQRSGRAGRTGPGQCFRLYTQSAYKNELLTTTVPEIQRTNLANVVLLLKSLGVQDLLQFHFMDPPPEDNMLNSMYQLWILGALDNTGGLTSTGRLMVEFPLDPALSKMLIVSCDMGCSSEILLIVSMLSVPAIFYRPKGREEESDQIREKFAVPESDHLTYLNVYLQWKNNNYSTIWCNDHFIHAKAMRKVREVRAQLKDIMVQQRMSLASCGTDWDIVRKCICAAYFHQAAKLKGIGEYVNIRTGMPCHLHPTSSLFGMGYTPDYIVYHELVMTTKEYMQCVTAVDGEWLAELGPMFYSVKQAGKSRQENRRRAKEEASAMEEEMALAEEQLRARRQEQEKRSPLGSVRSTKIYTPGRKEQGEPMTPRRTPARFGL
UniProt Q9Y2L1: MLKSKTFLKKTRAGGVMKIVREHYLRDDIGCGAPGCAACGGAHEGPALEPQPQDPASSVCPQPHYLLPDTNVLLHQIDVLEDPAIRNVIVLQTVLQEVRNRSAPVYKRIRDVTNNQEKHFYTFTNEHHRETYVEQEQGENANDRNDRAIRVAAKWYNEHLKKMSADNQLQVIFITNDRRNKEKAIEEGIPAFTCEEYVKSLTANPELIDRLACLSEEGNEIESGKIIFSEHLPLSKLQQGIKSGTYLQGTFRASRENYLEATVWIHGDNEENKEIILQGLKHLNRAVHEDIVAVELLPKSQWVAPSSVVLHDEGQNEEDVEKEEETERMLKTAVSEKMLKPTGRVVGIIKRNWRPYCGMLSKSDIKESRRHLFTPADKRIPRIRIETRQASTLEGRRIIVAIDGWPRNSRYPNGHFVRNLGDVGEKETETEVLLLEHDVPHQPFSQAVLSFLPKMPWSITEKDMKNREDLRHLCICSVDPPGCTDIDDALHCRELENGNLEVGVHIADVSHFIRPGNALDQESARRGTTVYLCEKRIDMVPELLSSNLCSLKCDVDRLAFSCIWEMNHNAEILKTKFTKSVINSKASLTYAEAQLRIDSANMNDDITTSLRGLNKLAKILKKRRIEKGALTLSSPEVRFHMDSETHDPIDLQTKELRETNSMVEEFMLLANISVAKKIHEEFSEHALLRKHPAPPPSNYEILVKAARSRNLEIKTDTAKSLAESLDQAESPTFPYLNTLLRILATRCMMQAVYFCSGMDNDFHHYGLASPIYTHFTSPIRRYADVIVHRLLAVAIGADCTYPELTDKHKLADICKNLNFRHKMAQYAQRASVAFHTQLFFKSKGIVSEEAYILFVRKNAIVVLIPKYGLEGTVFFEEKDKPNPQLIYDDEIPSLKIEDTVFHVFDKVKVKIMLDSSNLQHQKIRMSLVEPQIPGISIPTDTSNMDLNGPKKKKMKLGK
UniProt Q08211, whole entry, looked up: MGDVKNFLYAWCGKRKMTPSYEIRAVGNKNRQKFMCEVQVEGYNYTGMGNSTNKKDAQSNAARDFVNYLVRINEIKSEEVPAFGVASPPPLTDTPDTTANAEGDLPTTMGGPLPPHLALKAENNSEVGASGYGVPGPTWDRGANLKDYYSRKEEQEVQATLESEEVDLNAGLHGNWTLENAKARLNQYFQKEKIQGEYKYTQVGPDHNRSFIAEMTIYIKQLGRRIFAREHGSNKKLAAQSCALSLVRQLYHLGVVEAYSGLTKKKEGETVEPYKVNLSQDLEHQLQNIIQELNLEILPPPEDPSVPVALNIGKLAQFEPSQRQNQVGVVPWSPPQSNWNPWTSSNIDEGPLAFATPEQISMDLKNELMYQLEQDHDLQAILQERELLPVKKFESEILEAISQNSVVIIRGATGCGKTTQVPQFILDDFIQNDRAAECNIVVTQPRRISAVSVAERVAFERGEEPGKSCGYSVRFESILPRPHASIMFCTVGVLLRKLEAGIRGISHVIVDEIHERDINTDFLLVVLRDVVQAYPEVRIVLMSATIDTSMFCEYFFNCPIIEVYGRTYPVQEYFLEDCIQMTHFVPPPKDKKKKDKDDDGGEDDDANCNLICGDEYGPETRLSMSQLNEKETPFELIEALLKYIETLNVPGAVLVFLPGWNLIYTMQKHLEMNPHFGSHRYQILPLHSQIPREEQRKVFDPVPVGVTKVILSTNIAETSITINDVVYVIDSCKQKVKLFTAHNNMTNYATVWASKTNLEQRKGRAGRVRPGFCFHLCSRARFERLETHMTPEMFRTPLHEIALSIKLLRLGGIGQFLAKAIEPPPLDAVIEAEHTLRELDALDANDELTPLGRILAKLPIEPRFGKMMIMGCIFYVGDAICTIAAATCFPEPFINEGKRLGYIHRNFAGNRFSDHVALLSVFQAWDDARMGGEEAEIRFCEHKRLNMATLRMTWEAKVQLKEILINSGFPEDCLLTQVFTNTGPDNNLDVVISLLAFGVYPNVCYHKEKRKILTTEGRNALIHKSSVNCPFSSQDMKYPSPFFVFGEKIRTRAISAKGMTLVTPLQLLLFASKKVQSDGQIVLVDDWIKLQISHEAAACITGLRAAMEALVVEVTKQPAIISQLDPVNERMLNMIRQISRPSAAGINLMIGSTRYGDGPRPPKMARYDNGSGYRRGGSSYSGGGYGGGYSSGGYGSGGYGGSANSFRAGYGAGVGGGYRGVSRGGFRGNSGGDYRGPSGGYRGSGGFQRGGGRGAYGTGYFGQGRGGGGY

Compound: CC1Cc2ccccc2N1C(=O)C1CCCN(C1)C(=O)CCl (mixture of isomers) [TRIM25 ligand 11 (diastereomer mixture)]
Assay: probe-labelled cysteine peptide fold change vs DMSO (competition) (log2 fold change); higher = less target engagement (more negative = stronger competition)
Details: THP-1, incubation time: 4 h
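Note: competitive chemoproteomic profiling in live THP-1 cells with an iodoacetamide desthiobiotin (IA-DTB) probe, comparing probe-labelled peptide intensities in compound-treated cells against DMSO-treated controls.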

Target	probe-labelled cysteine peptide fold change (10 µM)	probe-labelled cysteine peptide fold change (50 µM)
DIS3L2_Q8IYB7_570_LAFTLDHETGLPQGCHIYEYR (UniProt Q8IYB7)	0.25	0.0489
DIAPH2_O60879_821_LTFEEHINNIKPSIIAVTLACEELK (UniProt O60879)	0.0764	0.000837
DNAJC13_O75165_2181_SLQYGEQVNEILCR (UniProt O75165)	-0.000235	0.0482
DHX38_Q92620_582_TTQLTQYLHEDGYTDYGMIGCTQPR (UniProt Q92620)	0.0347	-0.0104
DIS3_Q9Y2L1_474+492_HLCICSVDPPGCTDIDDALHCR (UniProt Q9Y2L1)	-0.14	-0.143
DHX9_Q08211_242_LAAQSCALSLVR (UniProt Q08211)	0.0548	0.166
DLD_P09622_477_VLGAHILGPGAGEMVNEAALALEYGASCEDIAR (UniProt P09622)	0.0386	0.162
DIAPH2_O60879_884_TTLLHFIADICEEK (UniProt O60879)	-0.0101	0.0779
DHX38_Q92620_27_GDTSEDASIHRLEGTDLDCQVGGLICK (UniProt Q92620)	0.00226	-0.294
DNAJA1_P31689_153_KGAVECCPNCR (UniProt P31689)	-0.0751	0.023
